# Data as given in PubChem BioAssay AID2551 (National Center for Advancing Translational Sciences (NCATS), 2010).
# Amino acid sequences for entries named in this document (tags omitted). A change or cut given only in a name is not applied to a line headed by its entry.
# UniProt P51450: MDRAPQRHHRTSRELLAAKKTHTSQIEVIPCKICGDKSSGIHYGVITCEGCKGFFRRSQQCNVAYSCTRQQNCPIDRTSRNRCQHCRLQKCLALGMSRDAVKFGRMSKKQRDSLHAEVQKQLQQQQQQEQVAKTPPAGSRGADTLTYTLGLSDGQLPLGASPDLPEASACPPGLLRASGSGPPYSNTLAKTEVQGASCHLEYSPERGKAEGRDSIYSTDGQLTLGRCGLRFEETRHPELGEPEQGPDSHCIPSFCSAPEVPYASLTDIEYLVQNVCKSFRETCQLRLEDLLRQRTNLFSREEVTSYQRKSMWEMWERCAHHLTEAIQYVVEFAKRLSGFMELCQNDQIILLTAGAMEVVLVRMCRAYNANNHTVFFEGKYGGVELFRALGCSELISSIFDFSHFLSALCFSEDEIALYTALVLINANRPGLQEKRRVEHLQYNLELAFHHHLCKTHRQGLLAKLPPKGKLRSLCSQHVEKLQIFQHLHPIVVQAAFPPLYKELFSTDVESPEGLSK
# Screen size: about 310,000 compounds; about 17,000 (5.5%) were called active. The inconclusive results got no clear call from the source; some entries with a clear call stand among them for comparison. Calls come from the whole dose curve; as a rule, active = well fitted inhibition curve with a large enough effect; inconclusive = small, poorly fitted or top-dose-only effect, or effect the other way; inactive = no such curve, though single readings can be large or run the other way. A potency beside an inconclusive call is a rough fit, not a confirmed value.
# Target: Nuclear receptor ROR-gamma (Mus musculus) (UniProt P51450)
# Assay: qHTS for inhibitors of ROR gamma transcriptional activity; note: nearly all actives have a fitted effect of over 60% in size
# Details: Drosophila S2 Gal4-RORgamma UAS-luciferase reporter, 20 h; activity change, negative = inhibition: at 53.6 µM (top of the series)
# How it was run: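 Read-out: Photinus luciferase luminescence; inhibitors lower reporter signal. Insect Schneider cells with Gal4-ROR gamma fusion under metallothionein promoter, UAS reporter; 700 uM final copper sulfate induction, 20 hr, ambient temperature.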
# % is set by controls: 0 for no effect and ±100 for the full control effect; potency is the fitted concentration of half-maximal effect.
SMILES,Potency,"activity change, negative = inhibition"
O=C(Nc1ccc2oc(-c3ccccc3)nc2c1)c1ccco1,"inconclusive: 28.2 µM [activator, partial curve, poor fit]",
COC(=O)c1c(NC(=O)C2CC2)sc2c1CCCC2,"inconclusive: 7.08 µM [activator, full curve, poor fit]",
Cc1cccc(C(=O)NC2=NCCS2)c1,active: 11.2 µM,
c1ccc2c(c1)[nH]c1c(NCC3CCCO3)ncnc12 (configuration not stated),"inconclusive: 6.31 µM [inhibitor, single point]",
c1ccc(Cn2c(CNc3nc4ccccc4n3CCN3CCOCC3)nc3ccccc32)cc1,"inconclusive: 11.2 µM [inhibitor, single point]",
Cc1ccc(N2CCN(C(=O)CNS(=O)(=O)c3ccc(Br)s3)CC2C)cc1 (configuration not stated),"inconclusive: 15.8 µM [activator, single point]",
CC(C)CNC(=S)N1CCN(c2nc(-c3ccc(Cl)cc3)cs2)CC1,"inconclusive: 35.5 µM [inhibitor, single point]",
CC(=O)n1cc(Nc2ccc([N+](=O)[O-])cc2)c2ccccc21,inactive,
CCOC(=O)c1cnn(-c2ccccc2)c1NC(=O)CN1CCOCC1,inactive,
COc1ccc(CNC(=O)Cn2cc(C(F)(F)F)ccc2=O)cc1,"inconclusive: 7.94 µM [inhibitor, single point]",
CC(C)CN(C(=O)COC(=O)c1c(Cl)ccc(Cl)c1Cl)C1CCS(=O)(=O)C1 (configuration not stated),inactive,
CCNc1ncc2nc(-c3ccccc3)c(=O)n(C)c2n1,inactive,
COc1ccc(CN=C2NC(=O)CC(C(=O)Nc3cc(C)cc(C)c3)S2)cc1 (configuration not stated),"inconclusive: 22.4 µM [activator, single point]",
O=C(N/N=C/c1ccccc1O)C1CCCC1,active: 0.158 µM,
CCn1c(=N)n(CC(=O)C23CC4CC(CC(C4)C2)C3)c2ccccc21,active: 3.98 µM,
O=C(COc1cccc2ccccc12)Nc1cc(S(=O)(=O)N2CCOCC2)ccc1N1CCOCC1,"inconclusive: 15.8 µM [activator, partial curve]",
CSc1c(SCc2ccccc2)cnn(Cc2ccccc2)c1=O,active: 5.62 µM,
CCOC(=O)c1c(CN(C)C)n(-c2ccccc2)c2cc(Br)c(OC)cc12,inactive,
O=C(COc1ccc(Br)cc1)N1CCN(c2ccc([N+](=O)[O-])c(N3CCCCC3)c2)CC1,"inconclusive: 11.2 µM [activator, partial curve, poor fit]",
O=C1N/C(=C/c2ccc(N3CCOCC3)o2)C(=O)N1c1ccccc1,active: 5.62 µM,
COC(=O)C/C=C/[C@@H](C)[C@@H](/C=N/O[C@@H](C)c1cn([C@H](CO)Cc2ccccc2)nn1)NS(=O)(=O)c1ccc(C)cc1,"inconclusive: 35.5 µM [activator, single point]",
O=c1c(-c2ccco2)[n+]([O-])c2ccccc2n1OCc1ccccn1,inactive,
O=C1NN(c2ccccc2)C(=O)/C1=C/c1ccc(Sc2cccc3ccccc23)o1,"inconclusive: 35.5 µM [inhibitor, single point]",
COc1cc(C(=O)COC(=O)Cc2cnc3sccn23)cc(OC)c1OC,"inconclusive: 1.26 µM [inhibitor, partial curve, poor fit]",

SMILES,Potency,"activity change, negative = inhibition"
COc1ccc(NC(=O)CCCn2c(=S)[nH]c3ccccc3c2=O)cc1,"inconclusive: 31.6 µM [inhibitor, single point]",
O=C(CSCSCC(=O)Nc1ccc2c(c1)OCO2)Nc1ccc2c(c1)OCO2,"inconclusive: 35.5 µM [inhibitor, single point]",
O=C(NNC(=S)Nc1ccc(Cl)c(Cl)c1)c1ccccn1,"inconclusive: 12.6 µM [inhibitor, partial curve]",
COc1cc(C(=O)O)ccc1OCc1ccncc1,"inconclusive: 11.2 µM [inhibitor, partial curve, poor fit]",
CCCCCCc1cc2cc(C(=O)Nc3ccccc3)c(=O)oc2cc1O,"inconclusive: 6.31 µM [inhibitor, single point]",
CC(OC(=O)CN1C(=O)c2ccccc2C1=O)C(=O)NC1CCCCC1 (configuration not stated),inactive,
Cc1noc2ncnc(Oc3ccc4ccccc4c3)c12,inactive,
O=C(c1ccc(F)cc1)N1CCN(S(=O)(=O)c2ccc(Br)cc2)CC1,"inconclusive: 17.8 µM [activator, single point]",
CCc1nc2sc3ccccc3c(=O)c2c(=O)n1Cc1ccc(OC)cc1,"inconclusive: 6.31 µM [activator, partial curve]",
CC(=O)[C@@H]1[C@H]2[C@H](C(=O)[C@H]3OC[C@@H]2O3)[C@H]2C=Cc3ccccc3N21,"inconclusive: 22.4 µM [inhibitor, partial curve]",
Cc1ccc(C)c(N2CCN(S(=O)(=O)c3c(C)[nH]c(C)c3C(=O)N3CCCCC3)CC2)c1,inactive,
CC(=O)COc1ccc(-c2csnn2)cc1,inactive,
COc1ccco1,inactive,
COc1ccccc1C(=O)NNC(=O)c1cccc(O)c1,"inconclusive: 35.5 µM [inhibitor, single point]",
Cc1ccc(NC(=S)NNC(=O)c2ccco2)cc1,"inconclusive: 10 µM [activator, partial curve]",
O=C(NCCCN1CCCC1=O)c1cccc(Oc2ccccc2)c1,"inconclusive: 11.2 µM [activator, single point]",
Cc1ccc(-n2nnnc2C(Cl)c2nnnn2-c2ccc(C)cc2)cc1,active: 11.2 µM,
CCOC(=O)c1c(C)[nH]c(N=Nc2ccc(C)cc2)c1C,"inconclusive: 35.5 µM [inhibitor, single point]",
COc1ccc(S(=O)(=O)N(C)CC(=O)NCCN2CCOCC2)cc1Cl,"inconclusive: 35.5 µM [activator, single point]",
CCOC(=O)C1(CCOc2ccccc2)CCN(Cc2ccc(OC)c(COC)c2)CC1,"inconclusive: 0.1 µM [inhibitor, single point]",
O=C(CN1CCCCC1)NN(Cc1ccccc1)c1ccccc1,inactive,
Cc1cc(=O)[nH]c(N2CCOCC2)n1,inactive,
Cc1ccc(CNC(=O)c2cccc(-n3cnnn3)c2)cc1,"inconclusive: 12.6 µM [activator, partial curve]",
Cc1ccc2c(Cl)c(C(=O)N/N=C/c3cccn3C)sc2c1,active: 1.26 µM,

# Some of the entries so far, bar-delimited.
SMILES | Potency | activity change, negative = inhibition
CCOC(=O)c1c(CN(C)C)n(-c2ccccc2)c2cc(Br)c(OC)cc12 | inactive | 
O=C(COc1ccc(Br)cc1)N1CCN(c2ccc([N+](=O)[O-])c(N3CCCCC3)c2)CC1 | inconclusive: 11.2 µM [activator, partial curve, poor fit] | 
O=C1N/C(=C/c2ccc(N3CCOCC3)o2)C(=O)N1c1ccccc1 | active: 5.62 µM | 
COC(=O)C/C=C/[C@@H](C)[C@@H](/C=N/O[C@@H](C)c1cn([C@H](CO)Cc2ccccc2)nn1)NS(=O)(=O)c1ccc(C)cc1 | inconclusive: 35.5 µM [activator, single point] | 
O=c1c(-c2ccco2)[n+]([O-])c2ccccc2n1OCc1ccccn1 | inactive | 
O=C1NN(c2ccccc2)C(=O)/C1=C/c1ccc(Sc2cccc3ccccc23)o1 | inconclusive: 35.5 µM [inhibitor, single point] | 
COc1cc(C(=O)COC(=O)Cc2cnc3sccn23)cc(OC)c1OC | inconclusive: 1.26 µM [inhibitor, partial curve, poor fit] | 
COc1ccc(NC(=O)CCCn2c(=S)[nH]c3ccccc3c2=O)cc1 | inconclusive: 31.6 µM [inhibitor, single point] | 
O=C(CSCSCC(=O)Nc1ccc2c(c1)OCO2)Nc1ccc2c(c1)OCO2 | inconclusive: 35.5 µM [inhibitor, single point] | 
O=C(NNC(=S)Nc1ccc(Cl)c(Cl)c1)c1ccccn1 | inconclusive: 12.6 µM [inhibitor, partial curve] | 
COc1cc(C(=O)O)ccc1OCc1ccncc1 | inconclusive: 11.2 µM [inhibitor, partial curve, poor fit] | 
CCCCCCc1cc2cc(C(=O)Nc3ccccc3)c(=O)oc2cc1O | inconclusive: 6.31 µM [inhibitor, single point] | 
CC(OC(=O)CN1C(=O)c2ccccc2C1=O)C(=O)NC1CCCCC1 (configuration not stated) | inactive | 
Cc1noc2ncnc(Oc3ccc4ccccc4c3)c12 | inactive | 
O=C(c1ccc(F)cc1)N1CCN(S(=O)(=O)c2ccc(Br)cc2)CC1 | inconclusive: 17.8 µM [activator, single point] | 

# Further compounds

SMILES,Potency,"activity change, negative = inhibition"
COc1ccc(OC)c(N=C2C(=O)Nc3ccccc32)c1,"inconclusive: 3.98 µM [activator, single point]",
CC(C)CCOc1ccc(-c2c(=O)n(OCc3ccc([N+](=O)[O-])cc3)c3ccccc3[n+]2[O-])cc1,"inconclusive: 14.1 µM [activator, single point]",
CCc1ccccc1NC(=O)CCC(=O)OCC(=O)c1ccc(-c2ccccc2)cc1,"inconclusive: 22.4 µM [inhibitor, single point]",
Cc1c(CC(Cl)(Cl)Cl)c2c(n1O)CC(C)(C)CC2=O,inactive,
CCOc1cc(/C=C2\SC(=S)N(NS(=O)(=O)c3ccccc3)C2=O)ccc1O,inactive,
CC(=O)/C=C/c1ccc2ccccc2n1,active: 10 µM,
COc1cc(NC(=O)C/C(C)=N/NC(=O)Cc2ccccc2)c(OC)cc1Cl,"inconclusive: 35.5 µM [inhibitor, single point]",
O=S(=O)(/N=S1/CC=CCN1S(=O)(=O)c1ccccc1)c1ccccc1 (configuration not stated),active: 11.2 µM,
CNC(=O)c1[nH]cnc1C(=O)Nc1ccc(Cl)cc1,active: 3.98 µM,
CC(=O)c1ccc(NC(=S)NCc2ccc(Cl)cc2Cl)cc1,"inconclusive: 20 µM [inhibitor, single point]",
C=CCNC(=O)c1ccccc1NC(=O)c1ccc(Cl)c(S(=O)(=O)Nc2cccc(C)c2C)c1,"inconclusive: 15.8 µM [activator, single point]",
CC(=O)c1ccc(NCCC(=O)c2ccccc2)cc1,inactive,
CC(=O)OCC1OC(Oc2cc(OC(C)=O)c3c(=O)cc(-c4ccc(OC(C)=O)c(OC(C)=O)c4)oc3c2)C(OC(C)=O)C(OC(C)=O)C1OC(C)=O (configuration not stated),active: 25.1 µM,
O=C(/C=C/c1ccccc1)NC(NC(=S)Nc1cccc(Cl)c1)C(Cl)(Cl)Cl (configuration not stated),"inconclusive: 12.6 µM [inhibitor, single point]",
O=C1/C(=C/c2ccccc2O)SC(=S)N1Cc1cccnc1,"inconclusive: 20 µM [inhibitor, single point]",
Cc1ccccc1N(C(=O)CNC(=O)c1ccco1)C(C(=O)NC1CCCCC1)c1cccnc1 (configuration not stated),inactive,
O=C(c1ccc(Cl)cc1)N1CCCCC(Sc2nnc(-c3ccc4c(c3)OCO4)o2)C1=O (configuration not stated),active: 1.41 µM,
Nc1nnnn1/N=C/C(Br)=C/c1ccccc1,active: 3.16 µM,
CCN(CC)S(=O)(=O)c1ccc(Oc2ccc(S(=O)(=O)N(CC)CC)cc2)cc1,"inconclusive: 35.5 µM [inhibitor, single point]",
CCn1c2ccccc2c2nnc(SCC(=O)NC(CC(C)C)C(=O)OC)nc21 (configuration not stated),,inactive: -18.9% [at 10 µM]
Cc1ccc(NC(=O)/C=C2\NC(=O)CS2)cc1,"inconclusive: 35.5 µM [inhibitor, single point]",
COc1ccc(CCNC(=O)Cc2ccc([N+](=O)[O-])cc2)cc1OC,"inconclusive: 35.5 µM [activator, single point]",
Cc1ccc(S(=O)(=O)Nc2cc(C(=O)NCCN(C)C)ccc2N2CCCCC2)cc1,"inconclusive: 35.5 µM [inhibitor, single point]",
COc1ccc(CCNc2ncnc3c2[nH]c2cc(OC)c(OC)cc23)cc1OC,"inconclusive: 35.5 µM [inhibitor, single point]",
